These are yes or no findings as the source states them, for the method shown. In cells and extracts the contact can be indirect. Some binding calls cover weakened binding; strength is not graded here.
Molecular target: Peroxisome proliferator-activated receptor gamma (human (endogenous in PC3)) (UniProt P37231)
Assay: co-IP; PPARγ immunoprecipitated with mouse anti-PPARγ and Protein G agarose from lysates of PC3 vector control cells and PC3 cells overexpressing FASN or MAGL (20 mM Tris-HCl, 150 mM NaCl, 1 mM EDTA, 1% NP-40, pH 7.4; diluted 1:2 in PBS; overnight at 4 °C); western blot for FABP5 and PPARγ

Sequences of proteins named here, by UniProt entry; tags and fusion partners are left off.
UniProt P37231: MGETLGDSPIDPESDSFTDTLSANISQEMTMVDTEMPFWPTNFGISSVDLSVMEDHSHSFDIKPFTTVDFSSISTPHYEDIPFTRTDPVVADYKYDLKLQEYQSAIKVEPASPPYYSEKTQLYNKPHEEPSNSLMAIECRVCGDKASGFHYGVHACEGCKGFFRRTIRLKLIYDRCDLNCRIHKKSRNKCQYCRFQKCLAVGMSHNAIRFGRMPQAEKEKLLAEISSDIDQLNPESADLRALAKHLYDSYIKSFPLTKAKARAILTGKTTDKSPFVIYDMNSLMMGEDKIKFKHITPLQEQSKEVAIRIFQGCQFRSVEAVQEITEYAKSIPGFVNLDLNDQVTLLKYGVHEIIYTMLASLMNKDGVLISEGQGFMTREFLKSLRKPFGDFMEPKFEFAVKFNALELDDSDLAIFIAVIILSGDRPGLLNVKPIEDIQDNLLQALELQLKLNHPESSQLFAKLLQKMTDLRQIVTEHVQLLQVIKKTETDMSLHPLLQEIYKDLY
UniProt Q01469: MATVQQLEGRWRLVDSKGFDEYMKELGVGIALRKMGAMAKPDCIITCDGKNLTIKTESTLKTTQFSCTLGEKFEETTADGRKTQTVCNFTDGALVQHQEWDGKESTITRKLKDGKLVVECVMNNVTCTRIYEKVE

In the case of “fatty acid binding protein 5 (from UniProt Q01469 1-135)”, the binding is reported as “binds”.

Source: publication PMC6908725
